This note sets out measurements from article PMC11302887.

By UniProt entry, the sequences of proteins in these tests, tags left out.
UniProt Q9P2D3: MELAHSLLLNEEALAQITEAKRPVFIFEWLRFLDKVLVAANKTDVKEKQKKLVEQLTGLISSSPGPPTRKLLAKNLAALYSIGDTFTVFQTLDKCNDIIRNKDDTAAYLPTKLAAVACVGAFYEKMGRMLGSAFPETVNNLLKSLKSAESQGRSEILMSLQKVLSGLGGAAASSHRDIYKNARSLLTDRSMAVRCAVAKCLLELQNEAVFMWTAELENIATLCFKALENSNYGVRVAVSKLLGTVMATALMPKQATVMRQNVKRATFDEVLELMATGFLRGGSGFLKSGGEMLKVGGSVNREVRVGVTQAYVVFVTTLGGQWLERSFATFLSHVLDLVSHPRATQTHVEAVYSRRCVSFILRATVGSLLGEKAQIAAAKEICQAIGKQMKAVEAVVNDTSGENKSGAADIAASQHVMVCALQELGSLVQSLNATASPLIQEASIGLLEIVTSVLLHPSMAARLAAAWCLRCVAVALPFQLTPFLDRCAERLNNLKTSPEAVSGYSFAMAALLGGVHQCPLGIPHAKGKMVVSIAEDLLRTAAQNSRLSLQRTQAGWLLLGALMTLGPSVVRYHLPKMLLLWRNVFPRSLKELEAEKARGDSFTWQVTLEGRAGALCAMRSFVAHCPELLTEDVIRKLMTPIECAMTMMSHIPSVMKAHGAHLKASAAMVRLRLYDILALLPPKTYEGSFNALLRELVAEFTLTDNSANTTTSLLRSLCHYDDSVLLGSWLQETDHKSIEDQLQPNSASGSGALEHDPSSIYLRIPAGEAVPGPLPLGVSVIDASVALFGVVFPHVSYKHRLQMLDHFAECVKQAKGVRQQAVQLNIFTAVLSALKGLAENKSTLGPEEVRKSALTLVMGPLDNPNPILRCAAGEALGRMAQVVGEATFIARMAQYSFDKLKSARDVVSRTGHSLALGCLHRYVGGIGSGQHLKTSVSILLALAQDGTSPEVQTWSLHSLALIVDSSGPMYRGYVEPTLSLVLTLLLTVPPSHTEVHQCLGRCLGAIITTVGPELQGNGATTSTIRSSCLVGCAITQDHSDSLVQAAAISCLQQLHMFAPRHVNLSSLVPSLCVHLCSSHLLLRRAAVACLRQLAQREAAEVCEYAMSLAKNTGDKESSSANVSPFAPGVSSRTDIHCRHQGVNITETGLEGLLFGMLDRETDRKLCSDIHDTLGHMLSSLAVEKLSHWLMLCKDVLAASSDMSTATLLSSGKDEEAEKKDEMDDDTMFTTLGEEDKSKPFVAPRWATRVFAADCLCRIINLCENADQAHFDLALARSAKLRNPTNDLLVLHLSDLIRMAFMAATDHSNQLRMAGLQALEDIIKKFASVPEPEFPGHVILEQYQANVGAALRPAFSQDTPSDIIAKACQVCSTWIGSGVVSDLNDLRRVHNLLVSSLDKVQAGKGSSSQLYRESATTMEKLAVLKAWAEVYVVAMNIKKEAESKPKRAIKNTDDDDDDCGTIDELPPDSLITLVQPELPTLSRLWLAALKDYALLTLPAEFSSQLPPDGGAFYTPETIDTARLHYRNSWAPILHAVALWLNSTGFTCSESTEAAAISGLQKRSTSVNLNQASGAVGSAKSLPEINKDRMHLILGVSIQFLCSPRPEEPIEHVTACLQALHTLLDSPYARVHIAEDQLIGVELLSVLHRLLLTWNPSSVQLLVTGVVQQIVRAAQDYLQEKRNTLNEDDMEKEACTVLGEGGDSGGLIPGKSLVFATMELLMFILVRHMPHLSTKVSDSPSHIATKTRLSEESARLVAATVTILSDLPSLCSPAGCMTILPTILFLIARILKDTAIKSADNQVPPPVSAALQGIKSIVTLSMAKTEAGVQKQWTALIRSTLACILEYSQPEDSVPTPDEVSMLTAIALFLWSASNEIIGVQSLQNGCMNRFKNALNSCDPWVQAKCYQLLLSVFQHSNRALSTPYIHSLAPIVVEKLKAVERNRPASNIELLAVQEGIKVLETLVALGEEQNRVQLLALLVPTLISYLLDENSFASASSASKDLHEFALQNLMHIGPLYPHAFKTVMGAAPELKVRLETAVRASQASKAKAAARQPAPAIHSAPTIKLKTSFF
UniProt O00471: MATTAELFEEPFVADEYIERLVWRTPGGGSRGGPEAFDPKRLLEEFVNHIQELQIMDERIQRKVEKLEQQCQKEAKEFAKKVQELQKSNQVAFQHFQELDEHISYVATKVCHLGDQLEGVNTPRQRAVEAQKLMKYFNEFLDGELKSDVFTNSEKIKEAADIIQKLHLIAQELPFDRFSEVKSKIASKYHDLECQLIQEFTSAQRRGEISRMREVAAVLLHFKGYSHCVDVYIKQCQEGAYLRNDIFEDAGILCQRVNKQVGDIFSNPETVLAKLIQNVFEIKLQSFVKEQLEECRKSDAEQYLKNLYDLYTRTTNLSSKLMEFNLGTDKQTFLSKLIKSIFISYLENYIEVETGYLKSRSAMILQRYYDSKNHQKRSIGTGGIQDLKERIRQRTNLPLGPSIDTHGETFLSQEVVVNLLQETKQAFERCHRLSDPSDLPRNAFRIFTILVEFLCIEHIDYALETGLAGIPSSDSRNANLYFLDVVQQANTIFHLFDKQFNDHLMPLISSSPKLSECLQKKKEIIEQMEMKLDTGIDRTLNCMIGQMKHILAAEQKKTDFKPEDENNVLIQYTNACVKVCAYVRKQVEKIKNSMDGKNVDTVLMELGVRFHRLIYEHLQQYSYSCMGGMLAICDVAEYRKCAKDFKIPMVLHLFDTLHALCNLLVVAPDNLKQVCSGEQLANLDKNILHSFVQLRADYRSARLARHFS

These are yes or no findings as the source states them, for the method shown. In cells and extracts the contact can be indirect. Here binding means that the protein was enriched with, or labelled near, the bait; the list need not be complete.

This experiment addresses phosphorylated Protein kinase Cα (human (endogenous in platelets)) (UniProt P17252). The experiment is described as follows: affinity purification with mass spectrometry; immunoprecipitation with an anti-p-PKCα antibody from platelet membrane proteins of breast cancer and benign patients, isotypic IgG as negative control; SDS-PAGE, silver staining, differential bands excised and analysed by mass spectrometry; the named hits are among the proteins detected only in breast cancer platelets.

On to “HEAT repeat-containing 5B (from UniProt Q9P2D3 1-2071)”, for which the binding entry is listed as “binds”.

As to SEC10 (from UniProt O00471 1-708), the binding result was “binds”.
